This passage reports binding results from paper PMC6056416.

Chains of the proteins cited; added tags and fusions are not shown.
UniProt O95071: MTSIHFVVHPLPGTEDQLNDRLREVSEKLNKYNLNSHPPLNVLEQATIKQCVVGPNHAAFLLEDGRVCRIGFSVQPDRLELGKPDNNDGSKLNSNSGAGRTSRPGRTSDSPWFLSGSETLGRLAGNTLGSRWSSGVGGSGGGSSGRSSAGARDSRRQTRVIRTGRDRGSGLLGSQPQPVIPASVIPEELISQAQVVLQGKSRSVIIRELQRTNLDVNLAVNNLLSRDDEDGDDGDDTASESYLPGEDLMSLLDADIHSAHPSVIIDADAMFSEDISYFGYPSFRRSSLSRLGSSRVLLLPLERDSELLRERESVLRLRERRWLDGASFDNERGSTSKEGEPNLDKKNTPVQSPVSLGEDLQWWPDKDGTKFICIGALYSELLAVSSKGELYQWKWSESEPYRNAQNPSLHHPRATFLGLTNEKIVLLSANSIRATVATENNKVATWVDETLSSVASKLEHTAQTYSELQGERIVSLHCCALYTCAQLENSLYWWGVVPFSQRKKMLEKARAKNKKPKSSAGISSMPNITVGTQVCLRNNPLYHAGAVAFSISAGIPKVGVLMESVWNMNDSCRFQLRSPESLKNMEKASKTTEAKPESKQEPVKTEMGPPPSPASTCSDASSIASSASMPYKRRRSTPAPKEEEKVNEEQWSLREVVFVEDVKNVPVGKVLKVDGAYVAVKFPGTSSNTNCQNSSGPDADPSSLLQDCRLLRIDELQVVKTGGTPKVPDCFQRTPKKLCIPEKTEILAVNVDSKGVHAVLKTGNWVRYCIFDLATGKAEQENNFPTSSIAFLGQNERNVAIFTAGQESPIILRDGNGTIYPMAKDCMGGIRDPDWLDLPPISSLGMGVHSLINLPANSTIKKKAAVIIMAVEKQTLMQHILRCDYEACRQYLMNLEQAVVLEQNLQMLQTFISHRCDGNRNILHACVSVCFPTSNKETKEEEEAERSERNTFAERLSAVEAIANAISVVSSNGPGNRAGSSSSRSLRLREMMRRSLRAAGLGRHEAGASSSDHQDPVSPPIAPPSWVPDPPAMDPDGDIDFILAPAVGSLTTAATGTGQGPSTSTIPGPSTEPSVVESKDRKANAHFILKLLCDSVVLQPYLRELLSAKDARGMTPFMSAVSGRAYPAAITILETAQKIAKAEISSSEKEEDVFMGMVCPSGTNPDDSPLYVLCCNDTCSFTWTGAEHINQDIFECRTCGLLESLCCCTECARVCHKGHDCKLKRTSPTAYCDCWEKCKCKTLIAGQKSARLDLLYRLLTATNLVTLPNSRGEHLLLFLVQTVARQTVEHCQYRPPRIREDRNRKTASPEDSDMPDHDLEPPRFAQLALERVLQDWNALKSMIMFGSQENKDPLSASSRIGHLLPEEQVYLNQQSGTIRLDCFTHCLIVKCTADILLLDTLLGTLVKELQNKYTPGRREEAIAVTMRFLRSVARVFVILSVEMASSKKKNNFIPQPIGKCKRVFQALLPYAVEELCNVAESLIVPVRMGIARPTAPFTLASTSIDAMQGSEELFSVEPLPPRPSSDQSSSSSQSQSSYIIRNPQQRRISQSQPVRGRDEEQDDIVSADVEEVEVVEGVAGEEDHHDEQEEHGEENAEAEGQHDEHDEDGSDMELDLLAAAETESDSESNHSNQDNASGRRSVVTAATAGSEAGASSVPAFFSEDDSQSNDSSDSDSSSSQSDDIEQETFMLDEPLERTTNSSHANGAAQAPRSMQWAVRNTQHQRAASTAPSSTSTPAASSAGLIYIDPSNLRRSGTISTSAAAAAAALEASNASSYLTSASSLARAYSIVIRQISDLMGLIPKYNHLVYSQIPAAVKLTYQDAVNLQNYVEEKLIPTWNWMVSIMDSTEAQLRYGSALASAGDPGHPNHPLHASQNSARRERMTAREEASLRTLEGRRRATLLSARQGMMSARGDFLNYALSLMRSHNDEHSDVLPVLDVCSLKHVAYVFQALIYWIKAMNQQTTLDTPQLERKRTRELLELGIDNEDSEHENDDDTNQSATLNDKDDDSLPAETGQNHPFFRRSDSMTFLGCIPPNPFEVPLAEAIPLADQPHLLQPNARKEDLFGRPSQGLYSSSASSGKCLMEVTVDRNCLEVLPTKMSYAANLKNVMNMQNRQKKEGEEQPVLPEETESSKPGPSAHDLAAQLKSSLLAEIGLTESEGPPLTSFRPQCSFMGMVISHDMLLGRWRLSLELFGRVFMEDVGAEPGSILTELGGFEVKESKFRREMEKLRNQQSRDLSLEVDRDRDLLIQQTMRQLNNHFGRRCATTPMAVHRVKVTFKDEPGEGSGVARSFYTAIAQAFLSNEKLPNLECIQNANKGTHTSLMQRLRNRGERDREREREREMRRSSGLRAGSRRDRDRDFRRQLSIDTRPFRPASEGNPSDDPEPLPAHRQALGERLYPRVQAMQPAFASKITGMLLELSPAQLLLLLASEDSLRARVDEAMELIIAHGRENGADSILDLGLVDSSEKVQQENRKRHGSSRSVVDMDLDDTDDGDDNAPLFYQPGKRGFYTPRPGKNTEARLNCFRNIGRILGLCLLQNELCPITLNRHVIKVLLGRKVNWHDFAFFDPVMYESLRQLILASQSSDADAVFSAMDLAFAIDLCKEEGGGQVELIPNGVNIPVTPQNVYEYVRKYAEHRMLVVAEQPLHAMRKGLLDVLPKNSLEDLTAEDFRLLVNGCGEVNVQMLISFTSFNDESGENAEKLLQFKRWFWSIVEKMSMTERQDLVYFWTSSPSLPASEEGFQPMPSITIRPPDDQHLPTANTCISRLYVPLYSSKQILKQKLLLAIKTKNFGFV
UniProt P42858: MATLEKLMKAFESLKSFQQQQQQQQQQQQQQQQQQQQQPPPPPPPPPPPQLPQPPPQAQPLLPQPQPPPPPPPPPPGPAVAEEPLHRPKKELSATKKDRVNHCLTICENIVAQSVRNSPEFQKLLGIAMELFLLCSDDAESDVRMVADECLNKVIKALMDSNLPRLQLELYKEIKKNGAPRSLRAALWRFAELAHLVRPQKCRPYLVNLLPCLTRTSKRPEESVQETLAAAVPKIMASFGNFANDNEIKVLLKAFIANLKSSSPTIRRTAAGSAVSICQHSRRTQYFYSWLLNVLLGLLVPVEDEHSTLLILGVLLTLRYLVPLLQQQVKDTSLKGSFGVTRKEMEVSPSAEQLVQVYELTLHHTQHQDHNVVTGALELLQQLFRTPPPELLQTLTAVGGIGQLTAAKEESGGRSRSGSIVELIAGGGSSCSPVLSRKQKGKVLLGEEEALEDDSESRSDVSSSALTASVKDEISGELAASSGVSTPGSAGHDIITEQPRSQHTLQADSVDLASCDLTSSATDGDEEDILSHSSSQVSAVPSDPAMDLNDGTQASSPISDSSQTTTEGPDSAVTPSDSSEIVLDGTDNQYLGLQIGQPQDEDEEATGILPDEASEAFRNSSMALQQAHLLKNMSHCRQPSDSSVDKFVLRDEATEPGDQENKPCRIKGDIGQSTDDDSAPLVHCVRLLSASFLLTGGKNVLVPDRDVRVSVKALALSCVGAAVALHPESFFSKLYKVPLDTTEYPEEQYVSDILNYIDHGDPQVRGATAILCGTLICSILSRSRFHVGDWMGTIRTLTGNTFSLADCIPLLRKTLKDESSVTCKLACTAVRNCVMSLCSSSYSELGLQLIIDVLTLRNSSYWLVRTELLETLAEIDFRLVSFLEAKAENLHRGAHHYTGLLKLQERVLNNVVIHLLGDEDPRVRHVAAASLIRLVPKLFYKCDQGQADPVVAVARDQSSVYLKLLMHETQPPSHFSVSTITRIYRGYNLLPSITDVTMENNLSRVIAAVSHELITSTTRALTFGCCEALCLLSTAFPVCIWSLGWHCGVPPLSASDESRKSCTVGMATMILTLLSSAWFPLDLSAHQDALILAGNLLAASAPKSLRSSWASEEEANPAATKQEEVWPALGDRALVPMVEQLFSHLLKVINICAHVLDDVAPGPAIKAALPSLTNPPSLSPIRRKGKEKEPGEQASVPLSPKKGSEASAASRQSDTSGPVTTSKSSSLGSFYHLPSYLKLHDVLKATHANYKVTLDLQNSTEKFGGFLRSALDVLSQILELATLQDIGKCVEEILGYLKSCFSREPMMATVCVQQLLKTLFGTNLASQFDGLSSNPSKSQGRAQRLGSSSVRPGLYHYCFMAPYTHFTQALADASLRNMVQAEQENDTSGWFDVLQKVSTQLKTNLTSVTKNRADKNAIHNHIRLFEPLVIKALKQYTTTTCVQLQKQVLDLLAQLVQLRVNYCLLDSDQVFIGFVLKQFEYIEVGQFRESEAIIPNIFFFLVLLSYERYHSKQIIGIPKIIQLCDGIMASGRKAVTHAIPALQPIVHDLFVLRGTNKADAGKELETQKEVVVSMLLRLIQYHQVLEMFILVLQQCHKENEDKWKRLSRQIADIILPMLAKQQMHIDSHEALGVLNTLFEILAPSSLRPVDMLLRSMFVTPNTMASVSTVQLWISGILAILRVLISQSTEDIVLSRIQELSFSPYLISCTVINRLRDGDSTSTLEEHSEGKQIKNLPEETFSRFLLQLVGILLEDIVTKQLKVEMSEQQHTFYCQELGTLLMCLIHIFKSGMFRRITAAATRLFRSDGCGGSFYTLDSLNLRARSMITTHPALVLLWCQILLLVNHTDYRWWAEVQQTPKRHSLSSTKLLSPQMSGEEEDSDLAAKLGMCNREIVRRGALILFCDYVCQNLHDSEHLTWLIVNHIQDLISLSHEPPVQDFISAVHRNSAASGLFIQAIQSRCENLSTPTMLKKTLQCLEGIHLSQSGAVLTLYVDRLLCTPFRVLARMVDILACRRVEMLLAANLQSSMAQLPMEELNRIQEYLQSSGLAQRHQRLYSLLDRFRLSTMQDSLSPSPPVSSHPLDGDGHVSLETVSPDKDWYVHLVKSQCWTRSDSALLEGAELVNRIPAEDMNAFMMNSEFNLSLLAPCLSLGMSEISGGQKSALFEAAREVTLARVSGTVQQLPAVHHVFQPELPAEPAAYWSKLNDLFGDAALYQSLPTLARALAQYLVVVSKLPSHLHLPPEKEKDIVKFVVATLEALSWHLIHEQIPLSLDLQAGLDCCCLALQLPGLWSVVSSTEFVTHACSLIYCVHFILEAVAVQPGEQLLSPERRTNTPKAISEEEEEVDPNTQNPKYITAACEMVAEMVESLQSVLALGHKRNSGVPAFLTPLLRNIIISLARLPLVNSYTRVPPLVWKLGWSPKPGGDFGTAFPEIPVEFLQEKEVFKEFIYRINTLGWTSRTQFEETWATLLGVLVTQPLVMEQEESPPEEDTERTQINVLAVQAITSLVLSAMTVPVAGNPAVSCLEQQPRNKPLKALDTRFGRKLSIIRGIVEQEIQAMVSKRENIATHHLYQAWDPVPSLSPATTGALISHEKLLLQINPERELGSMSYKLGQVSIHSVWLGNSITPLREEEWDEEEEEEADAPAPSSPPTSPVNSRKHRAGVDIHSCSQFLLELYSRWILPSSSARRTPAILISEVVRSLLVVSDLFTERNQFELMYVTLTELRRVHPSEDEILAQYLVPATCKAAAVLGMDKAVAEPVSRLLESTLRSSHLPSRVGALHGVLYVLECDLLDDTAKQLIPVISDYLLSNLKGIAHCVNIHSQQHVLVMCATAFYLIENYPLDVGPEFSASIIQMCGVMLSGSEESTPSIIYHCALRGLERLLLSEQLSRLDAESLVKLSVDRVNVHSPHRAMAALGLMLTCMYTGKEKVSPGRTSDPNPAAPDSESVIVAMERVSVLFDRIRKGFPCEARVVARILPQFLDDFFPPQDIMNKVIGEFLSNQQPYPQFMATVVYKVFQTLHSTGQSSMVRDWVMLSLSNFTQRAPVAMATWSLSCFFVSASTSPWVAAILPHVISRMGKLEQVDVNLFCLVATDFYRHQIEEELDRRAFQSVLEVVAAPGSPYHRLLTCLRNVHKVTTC
UniProt P35637: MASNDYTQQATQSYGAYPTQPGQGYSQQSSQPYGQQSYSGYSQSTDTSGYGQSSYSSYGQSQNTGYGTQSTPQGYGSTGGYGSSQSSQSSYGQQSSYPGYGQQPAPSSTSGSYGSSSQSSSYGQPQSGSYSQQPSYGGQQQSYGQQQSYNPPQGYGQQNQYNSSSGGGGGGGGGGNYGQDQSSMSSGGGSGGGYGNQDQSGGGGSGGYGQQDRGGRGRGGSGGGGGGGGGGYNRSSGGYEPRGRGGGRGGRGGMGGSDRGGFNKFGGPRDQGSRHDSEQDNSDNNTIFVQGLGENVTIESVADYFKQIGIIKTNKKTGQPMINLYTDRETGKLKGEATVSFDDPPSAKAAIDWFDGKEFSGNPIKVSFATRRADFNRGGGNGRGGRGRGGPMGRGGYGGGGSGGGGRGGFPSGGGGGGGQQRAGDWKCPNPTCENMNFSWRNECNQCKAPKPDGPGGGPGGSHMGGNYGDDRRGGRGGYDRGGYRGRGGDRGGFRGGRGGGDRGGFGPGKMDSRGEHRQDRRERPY

Results are given in words; binding and its absence hold for the method and conditions named. In cells and extracts the contact can be indirect. Some results given as binding are weak or reduced against the parent protein; the word gives no strength.

Test [1] has as its target UBR5 (human (endogenous in iPSCs)) (UniProt O95071). Kind of test: co-IP; control and ALS-iPSC lines lysed in RIPA buffer; immunoprecipitation with UBR5 antibody and Protein A beads, western blot (Supplementary Fig. 22b, c). For orientation: Immunoblotting shows a protein as a band on a membrane.
Test [2] shares this target. Kind of test: co-IP; MJD-iPSCs lysed in RIPA buffer; immunoprecipitation with UBR5 antibody and Protein A beads, western blot (Supplementary Fig. 22a).
Test [3] shares this target. Briefly: co-IP; HD Q71-iPSC line #1 lysed in RIPA buffer; immunoprecipitation with UBR5, UBE3A or FLAG (control) antibody and Protein A beads, western blot with HTT, polyQ-expanded HTT, UBR5 and UBE3A antibodies.
Test [4] concerns the target UBE3A (human (endogenous in iPSCs)) (UniProt Q05086). Described as above.

Turning to “normal huntingtin (HTT) (from UniProt P42858 1-3142)”, the binding result in test [1] is “binds”; in test [2], “binds”; in test [3], “binds”; in test [4], “no binding”.
As for “ataxin-3 (ATXN3), wild-type (from UniProt P54252 1-361)”, the binding entry in test [2] was “no binding”.
Consider “FUS, wild-type (from UniProt P35637 1-526)”, for which the binding result in test [1] is “no binding”.
